Measured values as given in ChEMBL document CHEMBL5532667 (J Med Chem, 2024).

Amino acid sequences for entries named in this document (tags omitted). A change or cut given only in a name is not applied to a line headed by its entry.
UniProt Q12809: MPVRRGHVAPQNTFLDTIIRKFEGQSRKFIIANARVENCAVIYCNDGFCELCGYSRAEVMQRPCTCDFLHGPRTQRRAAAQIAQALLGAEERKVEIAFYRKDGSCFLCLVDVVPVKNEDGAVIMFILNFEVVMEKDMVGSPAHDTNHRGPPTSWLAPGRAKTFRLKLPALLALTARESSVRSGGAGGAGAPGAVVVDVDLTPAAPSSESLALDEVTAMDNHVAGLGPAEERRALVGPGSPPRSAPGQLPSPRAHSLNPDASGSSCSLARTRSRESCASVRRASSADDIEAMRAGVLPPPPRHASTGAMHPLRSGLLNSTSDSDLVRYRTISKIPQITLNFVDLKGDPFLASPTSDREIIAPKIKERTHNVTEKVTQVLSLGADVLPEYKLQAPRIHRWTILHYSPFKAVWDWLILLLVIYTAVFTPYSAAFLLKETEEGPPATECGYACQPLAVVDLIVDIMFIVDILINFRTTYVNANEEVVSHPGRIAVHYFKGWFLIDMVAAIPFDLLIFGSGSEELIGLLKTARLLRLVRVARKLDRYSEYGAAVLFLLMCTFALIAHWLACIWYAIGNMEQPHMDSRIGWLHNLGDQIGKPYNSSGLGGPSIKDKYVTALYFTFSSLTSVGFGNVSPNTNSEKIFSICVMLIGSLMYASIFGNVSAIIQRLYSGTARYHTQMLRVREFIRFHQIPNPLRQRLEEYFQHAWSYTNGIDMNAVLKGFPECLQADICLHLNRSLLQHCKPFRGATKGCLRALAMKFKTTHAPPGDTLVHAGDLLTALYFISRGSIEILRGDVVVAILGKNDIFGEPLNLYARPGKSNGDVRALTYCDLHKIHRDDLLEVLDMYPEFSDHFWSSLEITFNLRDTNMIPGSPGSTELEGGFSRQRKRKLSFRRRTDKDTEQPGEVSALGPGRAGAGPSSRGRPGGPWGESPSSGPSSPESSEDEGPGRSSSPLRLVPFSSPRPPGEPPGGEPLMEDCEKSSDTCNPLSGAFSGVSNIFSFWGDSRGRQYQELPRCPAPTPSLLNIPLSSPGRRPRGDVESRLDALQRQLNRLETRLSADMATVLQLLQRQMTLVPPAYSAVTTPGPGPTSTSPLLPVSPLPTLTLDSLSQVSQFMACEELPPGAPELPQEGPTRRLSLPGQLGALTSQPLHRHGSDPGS
UniProt P11712, whole entry: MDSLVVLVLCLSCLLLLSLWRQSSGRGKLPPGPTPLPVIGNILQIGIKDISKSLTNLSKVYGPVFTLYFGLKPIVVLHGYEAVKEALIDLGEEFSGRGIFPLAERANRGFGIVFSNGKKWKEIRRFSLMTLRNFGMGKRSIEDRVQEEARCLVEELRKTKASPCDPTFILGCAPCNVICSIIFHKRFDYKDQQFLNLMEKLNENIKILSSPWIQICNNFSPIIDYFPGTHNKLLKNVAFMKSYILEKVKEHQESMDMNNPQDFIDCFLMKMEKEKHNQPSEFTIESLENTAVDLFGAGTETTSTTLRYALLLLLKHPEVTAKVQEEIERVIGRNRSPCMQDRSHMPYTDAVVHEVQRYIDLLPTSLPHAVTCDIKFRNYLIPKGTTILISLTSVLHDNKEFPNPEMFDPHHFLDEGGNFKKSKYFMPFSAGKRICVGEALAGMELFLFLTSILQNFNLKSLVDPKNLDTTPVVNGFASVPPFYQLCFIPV
UniProt P10635, whole entry: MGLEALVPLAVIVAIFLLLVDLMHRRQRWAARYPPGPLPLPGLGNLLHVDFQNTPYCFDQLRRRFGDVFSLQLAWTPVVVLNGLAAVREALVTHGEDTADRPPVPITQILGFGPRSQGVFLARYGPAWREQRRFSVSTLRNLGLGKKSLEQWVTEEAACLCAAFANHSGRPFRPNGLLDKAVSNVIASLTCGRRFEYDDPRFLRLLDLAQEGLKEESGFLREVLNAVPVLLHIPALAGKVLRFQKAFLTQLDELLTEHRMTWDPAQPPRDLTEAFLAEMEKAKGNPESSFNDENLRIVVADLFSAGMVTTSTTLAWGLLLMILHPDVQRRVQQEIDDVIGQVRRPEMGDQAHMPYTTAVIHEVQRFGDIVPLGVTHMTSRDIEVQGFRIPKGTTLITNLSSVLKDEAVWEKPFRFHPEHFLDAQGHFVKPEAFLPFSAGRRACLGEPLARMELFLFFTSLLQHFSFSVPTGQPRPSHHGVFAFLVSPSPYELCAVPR

Assays:
[1] = target: Voltage-gated inwardly rectifying potassium channel KCNH2 (Homo sapiens, UniProt Q12809)
Cytochrome P450 2C9 = Cytochrome P450 2C9 (Homo sapiens, UniProt P11712)
Cytochrome P450 2D6 = Cytochrome P450 2D6 (Homo sapiens, UniProt P10635)

C[C@](O)(CN1CC2CC(C1)N2c1ccc(C#N)cc1)C(=O)Nc1cnc(C#N)c(C(F)(F)F)c1
IC50 [1]: 20.1 µM
IC50 (Cytochrome P450 2C9): 10.8 µM
IC50 (Cytochrome P450 2D6): 2.72 µM
